# Results reported in the supplement of paper PMC12067093, “Discovery and optimisation of a covalent ligand for TRIM25 and its application to targeted protein ubiquitination” (Chemical Science, 2025).
# The chains behind the UniProt entries cited, without tags or fusion partners. Where a name states a change or a piece, a line headed by the entry shows the natural chain unless it says otherwise.
# UniProt Q5JTH9: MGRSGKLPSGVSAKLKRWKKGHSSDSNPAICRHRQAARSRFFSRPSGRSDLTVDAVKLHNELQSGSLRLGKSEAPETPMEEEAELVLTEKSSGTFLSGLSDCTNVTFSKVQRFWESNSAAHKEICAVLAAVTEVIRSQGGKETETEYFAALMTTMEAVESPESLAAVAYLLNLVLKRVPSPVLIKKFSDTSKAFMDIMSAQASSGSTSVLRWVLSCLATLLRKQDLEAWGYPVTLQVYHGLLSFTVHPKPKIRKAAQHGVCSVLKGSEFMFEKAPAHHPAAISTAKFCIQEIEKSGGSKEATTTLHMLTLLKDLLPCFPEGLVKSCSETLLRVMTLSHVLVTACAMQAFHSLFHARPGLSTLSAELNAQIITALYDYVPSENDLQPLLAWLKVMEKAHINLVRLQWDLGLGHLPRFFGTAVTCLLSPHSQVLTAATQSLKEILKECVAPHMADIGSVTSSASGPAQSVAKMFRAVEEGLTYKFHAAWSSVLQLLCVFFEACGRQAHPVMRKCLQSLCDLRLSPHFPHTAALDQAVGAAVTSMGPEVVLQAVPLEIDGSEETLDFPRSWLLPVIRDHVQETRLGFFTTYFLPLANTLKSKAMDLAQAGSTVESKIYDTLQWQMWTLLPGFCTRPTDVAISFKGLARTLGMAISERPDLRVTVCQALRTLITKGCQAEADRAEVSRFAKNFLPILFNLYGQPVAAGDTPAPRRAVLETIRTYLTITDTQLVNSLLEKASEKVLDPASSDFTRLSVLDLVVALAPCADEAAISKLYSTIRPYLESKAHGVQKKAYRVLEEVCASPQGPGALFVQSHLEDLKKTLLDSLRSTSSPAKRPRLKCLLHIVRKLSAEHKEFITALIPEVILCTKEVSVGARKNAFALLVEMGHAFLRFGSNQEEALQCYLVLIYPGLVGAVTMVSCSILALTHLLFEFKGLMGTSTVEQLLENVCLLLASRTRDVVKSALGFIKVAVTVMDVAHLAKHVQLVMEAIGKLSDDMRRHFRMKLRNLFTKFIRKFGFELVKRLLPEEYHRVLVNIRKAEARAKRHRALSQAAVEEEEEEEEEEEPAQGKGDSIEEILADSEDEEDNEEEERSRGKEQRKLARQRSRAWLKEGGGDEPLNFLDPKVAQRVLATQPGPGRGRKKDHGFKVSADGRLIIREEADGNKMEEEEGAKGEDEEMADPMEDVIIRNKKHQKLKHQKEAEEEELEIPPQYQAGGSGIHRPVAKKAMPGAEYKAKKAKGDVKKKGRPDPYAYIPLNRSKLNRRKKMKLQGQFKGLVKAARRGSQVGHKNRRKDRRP
# The other results are listed elsewhere or left out.
# Molecular target: RRP12_Q5JTH9_839_CLLHIVR (UniProt Q5JTH9)
# Experiment: probe-labelled cysteine peptide fold change vs DMSO (competition) (log2 fold change); higher = less target engagement (more negative = stronger competition)
# Settings: THP-1, incubation time: 4 h
# 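Also: competitive chemoproteomic profiling in live THP-1 cells with an iodoacetamide desthiobiotin (IA-DTB) probe, comparing probe-labelled peptide intensities in compound-treated cells against DMSO-treated controls.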
smiles,measurement,setting,value
CC1Cc2ccccc2N1C(=O)C1CCCN(C(=O)CCl)C1 (mixture of isomers) [TRIM25 ligand 11 (diastereomer mixture)],probe-labelled cysteine peptide fold change,10 µM,-0.209
same,probe-labelled cysteine peptide fold change,50 µM,0.038
